# In the supplement of paper PMC10338343:
# ± gives the standard deviation. The list shows a part of the results, in another mix than the full data. The uncertainty is large for many entries. The list shows a part of the results.
# What was measured:
# [1] = tested on: MILI (PIWIL2) piRISC loaded with L1MC piRNA (26 nt); assay: pre-steady-state target cleavage rate (min^-1); higher = faster piRNA-guided slicing of the target; conditions: guide: L1MC piRNA 5'p-UAACUAAAUACUAUGCAAGCUGUAGG; auxiliary factor: none (no GTSF1)
# Outline: (§1)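 Cleave-'n-Seq measured uncleaved targets by sequencing after a transcribed, DNA-blocked target RNA library […] was mixed with 1 nM active affinity-purified piRISC holding one synthetic guide, with or without 500 nM GTSF1 partner protein, at 33 °C in HEPES–potassium acetate buffer for 0–8 or 0–960 min. Counts were normalised to depth and to weakly complementary targets, three trials were pooled, and k3 was capped at 0.0001 min^-1. A burst-and-steady-state fit gave the pre-steady-state cleavage rate.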
# [2] = tested on: MIWI (PIWIL1) piRISC loaded with L1MC piRNA (30 nt); assay: as above; conditions: guide: L1MC piRNA 5'p-UAACUAAAUACUAUGCAAGCUGUAGGUCCU
# Outline: as §1
# [3] = tested on: EfPiwi piRISC loaded with L1MC piRNA (26 nt); assay: pre-steady-state target cleavage rate (min^-1); guide: L1MC piRNA 5'p-UAACUAAAUACUAUGCAAGCUGUAGG; MIWI and MILI are mouse PIWI proteins and EfPiwi is from a freshwater sponge; tags in brackets are library labels; higher = faster piRNA-guided slicing of the target; conditions: auxiliary factor: 500 nM Ephydatia muelleri Gtsf1
# Outline: as §1
# [4] = auxiliary factor: none (no GTSF1)
# [5] = auxiliary factor: 500 nM mouse GTSF1
Sequence,pre-steady-state target cleavage rate [1],"pre-steady-state target cleavage rate [2, 4]",pre-steady-state target cleavage rate [3],"pre-steady-state target cleavage rate [2, 5]"
UCCUGGAUGUCCUUGCAGUAGUAUUUAGUUA,0.00146 ± 0.0046,0.00118 ± 0.0057,0.000341 ± 0.0099,
UCCUGGAUGAGCUUGCUUAGUAUUUACAAA,0.00157 ± 0.0037,0.00188 ± 0.0033,0.00267 ± 0.0045,
UCCUGGAACAGCAAGCAUAGUAUUUAGAAA,0.00152 ± 0.0046,0.000915 ± 0.0045,0.00309 ± 0.002,
UCCUGGAUGUCGAAGCAUAGUAUUAUAGUUA,0.00204 ± 0.0038,0.000721 ± 0.0086,0.000727 ± 0.012,
UCCUGGAUCAGCUUGCAUAGUAAAUAGUAA,0.00261 ± 0.0027,0.00271 ± 0.0031,0.0018 ± 0.0021,
UCCUGGUACACGUUGCAUAGUAUUUAGUAA,0.00278 ± 0.0045,0.00321 ± 0.0035,0.00219 ± 0.0043,
UCCUGGAUCAGCUUGCAUAGUAAAAAGUUA,0.00178 ± 0.005,0.00109 ± 0.0033,0.000825 ± 0.0045,
UCCUGCAACAGCUUGCAUAGUAUUUUCAAA,0.000783 ± 0.012,0.00248 ± 0.0042,0.00269 ± 0.0017,
UCCUGGUACAGCUUGCAUAGUUAAUAGAAA,0.000671 ± 0.011,0.0018 ± 0.0043,0.000875 ± 0.0047,
UCCUCCUACAGCAACCAUAGUAUUUAGAAA,0.00066 ± 0.0081,0.000673 ± 0.0097,0.00166 ± 0.0044,
UCCUGGAACACCUUGCAUAGUAUUUUCAAA,0.000836 ± 0.007,0.00119 ± 0.0053,0.00179 ± 0.0036,
UCCUCCUACAGCUUGCAUCAGUAUUUAGUUA,0.00123 ± 0.0046,0.000884 ± 0.0082,0.00234 ± 0.0029,
UCCUGGAACAGCUUGCAGUAGUAUUUAGUUA,0.00147 ± 0.004,0.00198 ± 0.0037,0.00105 ± 0.0046,
UCCUGGAUCAGCUUGCAUAGUUAAUUCAAA,0.000934 ± 0.0058,0.00105 ± 0.0046,0.000318 ± 0.011,
UCCUGCUACAGCAAGCAUAGUAUUUAGAAA,0.00133 ± 0.0055,0.000402 ± 0.0082,0.00266 ± 0.0039,
UCCUGGAUGAGCUUGCAUAGUAAAUAGUAA,0.00102 ± 0.0064,0.00278 ± 0.003,0.00272 ± 0.0031,
UCCUGGAUGUCCUUGCAUAGUAAUUUGUUA,0.00125 ± 0.0043,0.00192 ± 0.0054,0.000383 ± 0.0069,
UCCUGGUACAGGUUGCAUAGUAUUUACUUA,0.00245 ± 0.0058,0.00733 ± 0.003,0.000428 ± 0.015,0.125 ± 0.035
UCCUGCUACAGCUUGCAUAGUAUUUUCAUA,0.000937 ± 0.0074,0.00202 ± 0.0028,0.00529 ± 0.0027,0.295 ± 0.055

# Full records as entered above.
# UCCUGGAACAGCUUGCAGUAGUAUUUAGUUA as listed: pre-steady-state target cleavage rate [1] = 0.00147 ± 0.004; pre-steady-state target cleavage rate [2, 4] = 0.00198 ± 0.0037; pre-steady-state target cleavage rate [3] = 0.00105 ± 0.0046
# UCCUGCUACAGCUUGCAUAGUAUUUUCAUA as listed: pre-steady-state target cleavage rate [1] = 0.000937 ± 0.0074; pre-steady-state target cleavage rate [2, 4] = 0.00202 ± 0.0028; pre-steady-state target cleavage rate [3] = 0.00529 ± 0.0027; pre-steady-state target cleavage rate [2, 5] = 0.295 ± 0.055
